Laboratory results reported in patent US20240349768A1, “SWEETENER BLEND COMPRISING THAUMATIN AND ONE OR MORE REBAUDIOSIDE” (NOMAD BIOSCIENCE GMBH, priority 2021, published 2024).

Tested on: test panelists
Assay: Round table qualitative assessment of quality of sweetness and undesirable attributes, scale of 1-10
Type: in vivo
Description: Round table evaluations were performed with 7 test panelists. Equal sweet 5 SEV concentrations in neutral pH water were made for Thaumatin II (purity greater than 90%), Rebaudioside A, and Rebaudioside M. These equal sweet solutions were also mixed at 50% of Thaumatin II and 50% Reb M or RebA and compared to the individual components. All solutions were coded and blinded from panelists. Panelists were asked to provide a qualitative assessment on a scale of 1-10 of the quality of sweetness (10 being the highest quality of sweetness) and undesirable attributes (10 being most undesirable) of each solution using a 5% sucrose and 500 ppm RebA solutions as controls. For the quality of sweetness, the score 10 was assigned to 5% sucrose. Vice versa, the score 1 was assigned to and 500 ppm RebA. For undesirable attributes, the scores 10 and 1 were assigned to 500 ppm RebA and 5% sucrose, respectively.

Row | Compound | Taste of control solution (500 ppm solution) | Taste of control solution (5% solution)
1 | C=C1C[C@@]23CC[C@H]4[C@@](C)(CCC[C@@]4(C)C(=O)O[C@@H]4O[C@H](CO)[C@@H](O)[C@H](O)[C@H]4O)[C@@H]2CC[C@]1(O[C@@H]1O[C@H](CO)[C@@H](O)[C@H](O[C@@H]2O[C@H](CO)[C@@H](O)[C@H](O)[C@H]2O)[C@H]1O[C@@H]1O[C@H](CO)[C@@H](O)[C@H](O)[C@H]1O)C3 [Rebaudioside A] | very strong artificial off taste | –
2 | OC[C@H]1O[C@@](CO)(O[C@H]2O[C@H](CO)[C@@H](O)[C@H](O)[C@H]2O)[C@@H](O)[C@@H]1O [sucrose] | – | sweet taste without any off notes
